# Laboratory results as given in the supplement of paper PMC8728848.
# The other results are listed elsewhere or left out.
# B1: Surfactant Protein D (Human); Neck + Carbohydrate Recognition Domain (NCRD) (Homo sapiens) (protein)
# chain: MLLFLLSALVLLTQPLGYLEAEMKTYSHRTMPSACTLVMCSSVESGLPGRDRDGREGPRGEKGDPGLPGAAGQAGMPGQAGPVGPKGDNGSVGEPGPKGDTGPSGPPGPPGVPGPAGREGALGKQGNIGPQGKPGPKGEAGPKGEVGAPGMQGSAGARGLAGPKGERGVPGERGVPGNTGAAGSAGAMGPQGSPGARGPPGLKGDKGIPGDKGAKGESGLPDVASLRQQVEALQGQVQHLQAAFSQYKKVELFPNGQSVGEKIFKTAQFVKPFTEAQLLCTQAGGQLASPRSAAENAALQQLVVAKNEAAFLSMTDSKTEGKFTYPTGESLVYSNWAPGKPNDDGGSEDCVEIFTNGKWNDRACGEKRLVVCEF
# How the values were obtained:
# Assay in all cases: glycan array binding signal (z-score within array); higher = stronger binding
# Details in all cases: glycan notation: IUPAC condensed, linker removed; mutation: E321K
# Fuc(a1-2)Gal = target: Fuc(a1-2)Gal
# Outline: (§1)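 Glycan array data were curated from 3228 arrays in the Consortium for Functional Glycomics database and kept only where the protein sequence was available. Glycan names were converted to IUPAC-condensed notation, and columns mapping to the same glycan were averaged. The binding signal is a within-array Z-score, averaged across arrays of the same protein sequence at different concentrations or buffers and across linkers. Negative Z-scores can be read as non-binding.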
# Fuc(a1-2)Gal(b1-3)GalNAc = target: Fuc(a1-2)Gal(b1-3)GalNAc
# Outline: as §1
# [1] = target: Fuc(a1-2)Gal(b1-3)GalNAc(b1-3)Gal
# Outline: as §1
# [2] = target: Fuc(a1-2)Gal(b1-3)GalNAc(b1-3)Gal(a1-4)Gal(b1-4)Glc
# Outline: as §1
# [3] = target: Fuc(a1-2)Gal(b1-3)GalNAc(b1-4)[Neu5Ac(a2-3)]Gal(b1-4)Glc
# Outline: as §1
# Fuc(a1-2)Gal(b1-3)GlcNAc = target: Fuc(a1-2)Gal(b1-3)GlcNAc
# Outline: as §1
# [4] = target: Fuc(a1-2)Gal(b1-3)GlcNAc(b1-3)Gal(b1-4)Glc
# Outline: as §1
# [5] = target: Fuc(a1-2)Gal(b1-3)[Fuc(a1-4)]GlcNAc
# Outline: as §1
# Fuc(a1-2)Gal(b1-4)Glc = target: Fuc(a1-2)Gal(b1-4)Glc
# Outline: as §1
# Fuc(a1-2)Gal(b1-4)Glc6S = target: Fuc(a1-2)Gal(b1-4)Glc6S
# Outline: as §1
# Fuc(a1-2)Gal(b1-4)GlcNAc = target: Fuc(a1-2)Gal(b1-4)GlcNAc
# Outline: as §1
# [6] = target: Fuc(a1-2)Gal(b1-4)GlcNAc(b1-3)Gal(b1-4)GlcNAc
# Outline: as §1
# [7] = target: Fuc(a1-2)Gal(b1-4)GlcNAc(b1-3)Gal(b1-4)GlcNAc(b1-3)Gal(b1-4)GlcNAc
# Outline: as §1
# [8] = target: Fuc(a1-2)Gal(b1-4)GlcNAc6S
# Outline: as §1
# [9] = target: Fuc(a1-2)Gal(b1-4)[Fuc(a1-3)]GlcNAc
# Outline: as §1
# [10] = target: Fuc(a1-2)Gal(b1-4)[Fuc(a1-3)]GlcNAc(b1-3)Gal(b1-4)[Fuc(a1-3)]GlcNAc
# Outline: as §1
# [11] = target: Fuc(a1-2)Gal(b1-4)[Fuc(a1-3)]GlcNAc(b1-3)Gal(b1-4)[Fuc(a1-3)]GlcNAc(b1-3)Gal(b1-4)[Fuc(a1-3)]GlcNAc
# Outline: as §1
# Fuc(a1-2)Gal6S(b1-4)Glc = target: Fuc(a1-2)Gal6S(b1-4)Glc
# Outline: as §1
# [12] = target: Fuc(a1-2)Gal6S(b1-4)Glc6S
# Outline: as §1
# [13] = target: Fuc(a1-2)Gal6S(b1-4)GlcNAc
# Outline: as §1
# Fuc(a1-2)[Gal(a1-3)]Gal = target: Fuc(a1-2)[Gal(a1-3)]Gal
# Outline: as §1
# [14] = target: Fuc(a1-2)[Gal(a1-3)]Gal(b1-3)GlcNAc
# Outline: as §1
# [15] = target: Fuc(a1-2)[Gal(a1-3)]Gal(b1-4)Glc
# Outline: as §1
# [16] = target: Fuc(a1-2)[Gal(a1-3)]Gal(b1-4)GlcNAc
# Outline: as §1
# [17] = target: Fuc(a1-2)[Gal(a1-3)]Gal(b1-4)[Fuc(a1-3)]GlcNAc
# Outline: as §1
# [18] = target: Fuc(a1-2)[Gal(a1-4)]Gal(b1-4)GlcNAc
# Outline: as §1
# [19] = target: Fuc(a1-2)[GalNAc(a1-3)]Gal
# Outline: as §1
# [20] = target: Fuc(a1-2)[GalNAc(a1-3)]Gal(b1-3)GlcNAc
# Outline: as §1
# [21] = target: Fuc(a1-2)[GalNAc(a1-3)]Gal(b1-4)Glc
# Outline: as §1
# [22] = target: Fuc(a1-2)[GalNAc(a1-3)]Gal(b1-4)GlcNAc
# Outline: as §1
# [23] = target: Fuc(a1-2)[GalNAc(a1-3)]Gal(b1-4)[Fuc(a1-3)]GlcNAc
# Outline: as §1
# [24] = target: Fuc(a1-2)[GalNAc(a1-4)]Gal(b1-4)GlcNAc
# Outline: as §1
# [25] = target: Fuc(a1-2)[GalNAc(b1-3)]Gal
# Outline: as §1
# Fuc(a1-3)GlcNAc = target: Fuc(a1-3)GlcNAc
# Outline: as §1
# [26] = target: Fuc(a1-3)[Gal(b1-4)]Glc6S
# Outline: as §1
# [27] = target: Fuc(a1-3)[Gal(b1-4)]GlcNAc
# Outline: as §1
# [28] = target: Fuc(a1-3)[Gal(b1-4)]GlcNAc(b1-2)Man(a1-3)[Fuc(a1-3)[Gal(b1-4)]GlcNAc(b1-2)Man(a1-6)]Man(b1-4)GlcNAc(b1-4)GlcNAc
# Outline: as §1
# [29] = target: Fuc(a1-3)[Gal(b1-4)]GlcNAc(b1-2)Man(a1-6)[Gal(b1-4)GlcNAc(b1-2)Man(a1-3)]Man(b1-4)GlcNAc(b1-4)GlcNAc
# Outline: as §1
# [30] = target: Fuc(a1-3)[Gal(b1-4)]GlcNAc(b1-3)Gal(b1-3)[Fuc(a1-4)]GlcNAc
# Outline: as §1
# [31] = target: Fuc(a1-3)[Gal(b1-4)]GlcNAc(b1-4)Gal(b1-4)[Fuc(a1-3)]GlcNAc
# Outline: as §1
# [32] = target: Fuc(a1-3)[Gal(b1-4)]GlcNAc(b1-4)Gal(b1-4)[Fuc(a1-3)]GlcNAc(b1-4)Gal(b1-4)[Fuc(a1-3)]GlcNAc
# Outline: as §1
# [33] = target: Fuc(a1-3)[Gal(b1-4)]GlcNAc6S
# Outline: as §1
# [34] = target: Fuc(a1-3)[Gal3S(b1-4)]Glc6S
# Outline: as §1
# [35] = target: Fuc(a1-3)[Gal3S(b1-4)]GlcNAc
# Outline: as §1
# [36] = target: Fuc(a1-3)[Gal3S(b1-4)]GlcNAc6S
# Outline: as §1
# [37] = target: Fuc(a1-3)[GalNAc(b1-4)]GlcNAc
# Outline: as §1
# Fuc(a1-4)GlcNAc = target: Fuc(a1-4)GlcNAc
# Outline: as §1
# Fuc(b1-3)GlcNAc = target: Fuc(b1-3)GlcNAc
# Outline: as §1
# Gal(a1-2)Gal = target: Gal(a1-2)Gal
# Outline: as §1
# Gal(a1-3)Gal = target: Gal(a1-3)Gal
# Outline: as §1
# Gal(a1-3)Gal(b1-3)GlcNAc = target: Gal(a1-3)Gal(b1-3)GlcNAc
# Outline: as §1
# Gal(a1-3)Gal(b1-4)Glc = target: Gal(a1-3)Gal(b1-4)Glc
# Outline: as §1
# Gal(a1-3)Gal(b1-4)GlcNAc = target: Gal(a1-3)Gal(b1-4)GlcNAc
# Outline: as §1
# [38] = target: Gal(a1-3)Gal(b1-4)[Fuc(a1-3)]GlcNAc
# Outline: as §1
# Gal(a1-3)GalNAc = target: Gal(a1-3)GalNAc
# Outline: as §1
# [39] = target: Gal(a1-3)[Gal(a1-4)]Gal(b1-4)GlcNAc
# Outline: as §1
# Gal(a1-4)Gal(b1-4)Glc = target: Gal(a1-4)Gal(b1-4)Glc
# Outline: as §1
# Gal(a1-4)Gal(b1-4)GlcNAc = target: Gal(a1-4)Gal(b1-4)GlcNAc
# Outline: as §1
# Gal(a1-4)GlcNAc = target: Gal(a1-4)GlcNAc
# Outline: as §1
# Gal(a1-6)Glc = target: Gal(a1-6)Glc
# Outline: as §1
binder,measurement,setting,value
B1,glycan array binding signal (z-score),Fuc(a1-2)Gal,-0.314
same,glycan array binding signal (z-score),Fuc(a1-2)Gal(b1-3)GalNAc,-0.221
same,glycan array binding signal (z-score),[1],-0.212
same,glycan array binding signal (z-score),[2],0.12
same,glycan array binding signal (z-score),[3],-0.616
same,glycan array binding signal (z-score),Fuc(a1-2)Gal(b1-3)GlcNAc,-0.526
same,glycan array binding signal (z-score),[4],-0.896
same,glycan array binding signal (z-score),[5],0.986
same,glycan array binding signal (z-score),Fuc(a1-2)Gal(b1-4)Glc,-0.62
same,glycan array binding signal (z-score),Fuc(a1-2)Gal(b1-4)Glc6S,-0.524
same,glycan array binding signal (z-score),Fuc(a1-2)Gal(b1-4)GlcNAc,-0.6
same,glycan array binding signal (z-score),[6],0.004
same,glycan array binding signal (z-score),[7],-0.044
same,glycan array binding signal (z-score),[8],0.229
same,glycan array binding signal (z-score),[9],-0.011
same,glycan array binding signal (z-score),[10],0.16
same,glycan array binding signal (z-score),[11],1.25
same,glycan array binding signal (z-score),Fuc(a1-2)Gal6S(b1-4)Glc,0.45
same,glycan array binding signal (z-score),[12],0.578
same,glycan array binding signal (z-score),[13],1.44
same,glycan array binding signal (z-score),Fuc(a1-2)[Gal(a1-3)]Gal,-0.533
same,glycan array binding signal (z-score),[14],-0.11
same,glycan array binding signal (z-score),[15],-0.072
same,glycan array binding signal (z-score),[16],-0.71
same,glycan array binding signal (z-score),[17],0.06
same,glycan array binding signal (z-score),[18],0.984
same,glycan array binding signal (z-score),[19],-0.333
same,glycan array binding signal (z-score),[20],-0.437
same,glycan array binding signal (z-score),[21],-0.826
same,glycan array binding signal (z-score),[22],0.384
same,glycan array binding signal (z-score),[23],0.05
same,glycan array binding signal (z-score),[24],-0.35
same,glycan array binding signal (z-score),[25],-0.418
same,glycan array binding signal (z-score),Fuc(a1-3)GlcNAc,-0.981
same,glycan array binding signal (z-score),[26],0.3
same,glycan array binding signal (z-score),[27],1.15
same,glycan array binding signal (z-score),[28],0.679
same,glycan array binding signal (z-score),[29],-0.239
same,glycan array binding signal (z-score),[30],-0.095
same,glycan array binding signal (z-score),[31],-0.279
same,glycan array binding signal (z-score),[32],0.661
same,glycan array binding signal (z-score),[33],1.76
same,glycan array binding signal (z-score),[34],0.396
same,glycan array binding signal (z-score),[35],1.05
same,glycan array binding signal (z-score),[36],-0.022
same,glycan array binding signal (z-score),[37],-0.687
same,glycan array binding signal (z-score),Fuc(a1-4)GlcNAc,-0.581
same,glycan array binding signal (z-score),Fuc(b1-3)GlcNAc,0.752
same,glycan array binding signal (z-score),Gal(a1-2)Gal,-0.831
same,glycan array binding signal (z-score),Gal(a1-3)Gal,-0.277
same,glycan array binding signal (z-score),Gal(a1-3)Gal(b1-3)GlcNAc,-0.222
same,glycan array binding signal (z-score),Gal(a1-3)Gal(b1-4)Glc,-0.338
same,glycan array binding signal (z-score),Gal(a1-3)Gal(b1-4)GlcNAc,0.494
same,glycan array binding signal (z-score),[38],-0.952
same,glycan array binding signal (z-score),Gal(a1-3)GalNAc,-0.893
same,glycan array binding signal (z-score),[39],0.032
same,glycan array binding signal (z-score),Gal(a1-4)Gal(b1-4)Glc,-0.691
same,glycan array binding signal (z-score),Gal(a1-4)Gal(b1-4)GlcNAc,0.234
same,glycan array binding signal (z-score),Gal(a1-4)GlcNAc,0.373
same,glycan array binding signal (z-score),Gal(a1-6)Glc,-1.01

# Part of the list above, set out differently.
binder	measurement	setting	value
B1	glycan array binding signal (z-score)	Fuc(a1-2)Gal	-0.314
same	glycan array binding signal (z-score)	[3]	-0.616
same	glycan array binding signal (z-score)	[4]	-0.896
same	glycan array binding signal (z-score)	[5]	0.986
same	glycan array binding signal (z-score)	Fuc(a1-2)Gal(b1-4)Glc6S	-0.524
same	glycan array binding signal (z-score)	[10]	0.16
same	glycan array binding signal (z-score)	[15]	-0.072
same	glycan array binding signal (z-score)	[17]	0.06
same	glycan array binding signal (z-score)	[20]	-0.437
same	glycan array binding signal (z-score)	[23]	0.05
same	glycan array binding signal (z-score)	[27]	1.15
same	glycan array binding signal (z-score)	[28]	0.679
same	glycan array binding signal (z-score)	[33]	1.76
same	glycan array binding signal (z-score)	Fuc(b1-3)GlcNAc	0.752
same	glycan array binding signal (z-score)	[38]	-0.952
same	glycan array binding signal (z-score)	[39]	0.032
same	glycan array binding signal (z-score)	Gal(a1-4)Gal(b1-4)GlcNAc	0.234
